These results are taken from patent US20220403040A1.

The chains behind the UniProt entries cited, without tags or fusion partners. Where a name states a change or a piece, a line headed by the entry shows the natural chain unless it says otherwise. Residues count along the entry.
UniProt A9YYE7, residues 24-186: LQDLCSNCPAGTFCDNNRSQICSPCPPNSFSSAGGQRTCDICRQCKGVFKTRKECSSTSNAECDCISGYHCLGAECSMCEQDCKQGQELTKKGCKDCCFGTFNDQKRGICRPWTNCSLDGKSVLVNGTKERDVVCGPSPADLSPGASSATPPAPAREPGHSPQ

The target in test [1] is Cyno CD137-his (Sino Biological, 90847-K02H-100) (cynomolgus monkey) (UniProt A9YYE7). As to the kind of experiment: biolayer interferometry (Octet), antibody captured on anti-human IgG Fc (AHC) sensor, cynomolgus CD137-his in solution. (In general: Biolayer interferometry detects binding as a change in optical thickness at a sensor tip.)
For test [2] the target is unchanged. Put plainly: BLI (Octet).
In test [3] the target is cynomolgus-CD137 ECD (cynomolgus monkey) (UniProt A9YYE7). Put plainly: ELISA of Fab in supernatants after phage panning.

Positions count from the first letter of the chain named. These are yes or no findings as the source states them, for the method shown. Some binding calls cover weakened binding; strength is not graded here.

B1: Anti-CD137 clone 2-9 IgG2 wt (antibody, V domains shown)
VH: QVQLVQSGAEVKKPGASVKASCKASGFNIQDTYIHWVRQAPGQGLEWMGRIDPANGNSEYAQKFQGRVTMTRDTSTSTVYMELSSLRSEDTAVYYCTTGNLHYALMDYWGQGTSVTVSS
VL: DIQMTQSPSSVSASVGDRVTITCKASQPINTYLSWYQQKPGKAPKLLIYRVNRKVDGVPSRFSGSGSGTDFTLTISSLQPEDFATYYCLQYLDFPYTFGGGTKLEIKR
Consider B1, for which the binding result in test [1] and in test [2] was “binds” in each case.

B2: Clone 19 Fab (affinity-matured humanized 29.39) (Fab, V domains shown)
VH: B1 VH with A20V, I29M, Q30K, R50K, N57A, S58T, A104G
VL: B1 VL with P28A, V51A, K54M, V55G, Y91S, L92D
Consider B2, for which, in test [3], the binding entry is on record as “binds”.

B3: Clone 9 Fab (affinity-matured humanized 29.39) (Fab, V domains shown)
VH: B1 VH with A20V, I29L, Q30K, R50K, S58T
VL: B1 VL with P28A, N30A, V51A, K54M, V55Y, Y91F, L92D
Consider B3, for which the binding entry in test [3] is listed as “binds”.

B4: Clone 18 Fab (affinity-matured humanized 29.39) (Fab, V domains shown)
VH: B1 VH with A20V, K23Q, Q30K, E46G, R50K, N57M, S58T, M70V
VL: B1 VL with P28A, I29P, V51A, K54M, L92E
Regarding B4, in test [3], the binding result is on record as “binds”.

B5: Clone 3 Fab (affinity-matured humanized 29.39) (Fab, V domains shown)
VH: B1 VH with A20V, I29P, Q30K, N57F, S58T
VL: B1 VL with P28A, V51A, K54M, P80H, Y91S, L92D
On to B5, for which the binding entry in test [3] is reported as “binds”.

B6: Clone 2-11 Fab (affinity-matured humanized 29.39) (Fab, V domains shown)
VH: B1 VH with A20V, Q30K, R50K, N57G, S58T
VL: B1 VL with L92V
As for B6, in test [3], the binding result is reported as “binds”.

B7: Clone 5 Fab (affinity-matured humanized 29.39) (Fab, V domains shown)
VH: B1 VH with A20V, Q30R, R50K, S58T, A104G
VL: B1 VL with P28A, L33H, K54M
Consider B7, for which the binding result in test [3] is given as “binds”.

B8: Clone 2-9 Fab (affinity-matured humanized 29.39) (Fab, V domains shown)
VH: B1 VH
VL: B1 VL
On to B8, for which, in test [3], the binding entry is “binds”.

B9: Clone 25 Fab (affinity-matured humanized 29.39) (Fab, V domains shown)
VH: B1 VH with A20V, A104G
VL: B1 VL with P28A, V51D, L92Q, T97K
As for B9, in test [3], the binding entry is listed as “binds”.

B10: Clone 33 Fab (affinity-matured humanized 29.39) (Fab, V domains shown)
VH: B1 VH with A20V, Q30K, H35Q, R50K, S58T, E59M
VL: B1 VL with P28T, V51A, K54M, V55P, L92D
In the case of B10, in test [3], the binding result is “binds”.

B11: Clone 20 Fab (affinity-matured humanized 29.39) (Fab, V domains shown)
VH: B1 VH with A20V, I29M, Q30K, R50K, N57D, S58T
VL: B1 VL with P28A, V51A, K54A
B11: the binding entry in test [3] is reported as “binds”.

B12: Clone 35 Fab (affinity-matured humanized 29.39) (Fab, V domains shown)
VH: B1 VH with A20V, Q30N, N57Y, S58T
VL: B1 VL with P28A, N30A, V51A, K54M, Y91F, L92Q
In the case of B12, the binding entry in test [3] is recorded as “binds”.

B13: Clone 23 Fab (affinity-matured humanized 29.39) (Fab, V domains shown)
VH: B1 VH with A20V, Q30K, R50K, N57Q, S58T
VL: B1 VL with P28A, V51A, K54M, D56G, L92R
Consider B13, for which, in test [3], the binding result is on record as “binds”.
